Measurements reported in PubChem BioAssay AID504834 (National Center for Advancing Translational Sciences (NCATS), 2011).
Among all 320,000 compounds or so, about 22,000 (6.9%) were called active. Inconclusive means that the source gave no clear call. Such entries were picked first, then a sample of the others. The call rests on the fitted dose curve; in most records, active means well fitted inhibition curve with a large enough effect; inconclusive means small, poorly fitted or top-dose-only effect, or another doubt; inactive means no such curve, though single readings can be large or run the other way. A potency beside an inconclusive call is a rough fit, not a confirmed value.

Experiment: Primary qHTS for delayed death inhibitors of the malarial parasite plastid, 96 hour incubation
Settings: P. falciparum luciferase reporter growth; series mostly up to 28.7 µM
How it was run: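 Two-generation exposure (96 h) targets delayed-death phenotype. Reporter parasites carrying integrated firefly luciferase, in red cells at 2% hematocrit and 0.05% parasitemia final, kept at 37 C, 5% CO2; luminescence loss indicates inhibition.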
Potency means the concentration at half of the fitted maximal effect.

Row | Structure (SMILES) | Potency
1 | CN(C)C1=NC[C@H](Cc2ccccc2)N1CCC1CCCC1 | inconclusive: 10.4 µM [inhibitor, single point]
2 | CC(=O)Cn1c(N2CCC(Cc3ccccc3)CC2)nc2c1c(=O)[nH]c(=O)n2C | inconclusive: 0.0233 µM [inhibitor, full curve, poor fit]
3 | CC1CCCCN1Cc1nc2c(c(=O)n(C)c(=O)n2C)n1CCc1ccccc1 (configuration not stated) | inconclusive: 18.5 µM [inhibitor, partial curve, poor fit]
4 | C=CCn1c(=O)c2c(nc3n2CCCN3CCc2ccccc2)n(C)c1=O | inconclusive: 2.62 µM [inhibitor, partial curve, poor fit]
5 | Cc1ccc(Nc2nc(N)nc(CCl)n2)cc1 | inconclusive: 9.28 µM [inhibitor, partial curve]
6 | Cc1c(NC(=S)NC(NC(=O)C(C)(C)C)C(Cl)(Cl)Cl)c(=O)n(-c2ccccc2)n1C (configuration not stated) | inconclusive: 18.5 µM [inhibitor, single point]
7 | Cc1c(Cl)cccc1N=Cc1ccc([N+](=O)[O-])s1 | inconclusive: 3.29 µM [inhibitor, full curve, poor fit]
8 | COc1ccc(C)cc1NC(=O)c1ccccc1N(C)S(=O)(=O)c1ccccc1 | inactive
9 | Fc1ccccc1CCNc1c2c(nc3ncnn13)CCCC2 | inactive
10 | O=C(CCBr)N1CCN(C(=O)CCBr)CC1 | inconclusive: 5.36 µM [inhibitor, partial curve]
11 | O=C(c1ccccc1)C1NC1c1ccccc1 (configuration not stated) | inactive
12 | Nc1ccc2nc(CCCCc3nc4ccccc4[nH]3)[nH]c2c1 | inconclusive: 13.1 µM [inhibitor, single point]
13 | O=C(c1ccco1)N(Cc1ccc2c(c1)OCO2)Cc1cc2cc3c(cc2[nH]c1=O)OCO3 | active: 11.7 µM
14 | CCn1c(SCC(=O)Nc2nc(-c3ccccc3)cs2)nnc1-c1ccccc1 | inconclusive: 16.5 µM [inhibitor, partial curve, poor fit]
15 | COc1ccc(-c2sc3ccc(N4CCOCC4)cc3c2-c2ccc(O)cc2)cc1 | inconclusive: 7.38 µM [inhibitor, partial curve, poor fit]
16 | O=C(C1CCN(S(=O)(=O)c2cccc3cccnc23)CC1)N1CCN(c2ccccn2)CC1 | inconclusive: 4.15 µM [inhibitor, single point]
17 | CCCc1c2c(cc3c(=O)cc(C(=O)OCC)oc13)CCCC2 | inactive
18 | CCCN1C2CCCC1CC(NC(=S)NCCCOCC)C2 (configuration not stated) | inconclusive: 13.1 µM [inhibitor, single point]
19 | COc1ccc(OC)c(NC(=O)COC(=O)CSc2ccc(Cl)cc2)c1 | inactive
20 | CCc1cc(C(=O)NCC(c2cccs2)N2CCOCC2)sc1C (configuration not stated) | inconclusive: 9.28 µM [inhibitor, partial curve, poor fit]
21 | Cc1nn(CCC(=O)NNC(=S)Nc2cccc(Cl)c2)c(C)c1[N+](=O)[O-] | inconclusive: 18.5 µM [inhibitor, single point]
22 | Cc1ccc(Cc2c(C)nc3nc(SCC(=O)NCCN4CCOCC4)nn3c2C)cc1 | inconclusive: 1.47 µM [inhibitor, partial curve, poor fit]
23 | CCc1nc(SCC(=O)Nc2cc(C)on2)c2c(=O)n(C)c(=O)n(C)c2n1 | inconclusive: 18.5 µM [inhibitor, single point]

Row | Structure (SMILES) | Potency
24 | CN(c1ccc(OC(=O)CC2OC(=O)c3ccccc32)cc1)S(=O)(=O)c1ccccc1 (configuration not stated) | inconclusive: 16.5 µM [inhibitor, partial curve, poor fit]
25 | C=C[C@@](C)(O)CC[C@@H]1[C@@]2(C)CCCC(C)(C)[C@@H]2CC[C@@]1(C)O | inconclusive: 0.185 µM [inhibitor, full curve, poor fit]
26 | CCS(=O)(=O)N1CCN(Cc2ccc([N+](=O)[O-])cc2)CC1 | inconclusive: 2.94 µM [inhibitor, full curve, poor fit]
28 | CN(c1ccccc1)c1nc(N)c(C#N)c(CC#N)c1C#N | inconclusive: 18.5 µM [inhibitor, single point]
29 | O=C(OCC(=O)N1CCN(c2ccccc2)CC1)c1ccccc1[N+](=O)[O-] | inactive
30 | COc1ccc(NC(=O)C(=O)c2cn(CC(=O)N3CCCC3)c3ccccc23)cc1OC | inconclusive: 9.28 µM [inhibitor, single point]
31 | Cc1ccc(CNC(=O)CCCc2ccccc2)cc1 | inactive
32 | CC(C)Cc1ccc(C(C)C(=O)Nc2ccccc2O)cc1 (configuration not stated) | inactive
33 | COc1ccc(NS(=O)(=O)c2cc(NC(=O)c3ccc(=O)[nH]c3)ccc2N2CCCC2)cc1 | inconclusive: 11.7 µM [inhibitor, single point]
34 | Cc1nc2ccc(C(=O)Nc3ccccc3Cl)cc2s1 | inconclusive: 9.28 µM [inhibitor, single point]
35 | CCC(=O)Nc1nc2ccc(NC(C)=O)cc2s1 | inactive
36 | CC1CCN(c2ccccc2NC(=O)c2ccc(F)cc2)CC1 | inconclusive: 7.38 µM [inhibitor, partial curve, poor fit]
37 | Cc1ccc(C(=O)Nc2cccc(-c3ccc(N4CCOCC4)nn3)c2)cc1C | inconclusive: 18.5 µM [inhibitor, single point]
38 | O=C(COC(=O)c1cc[n+]([O-])cc1)Nc1ccc(Cl)cc1C(F)(F)F | inactive
39 | O=C(CSc1ccc(Cl)cc1)Nc1ccc(N2CCN(C(=O)c3ccc(Cl)cc3)CC2)cc1 | inconclusive: 18.5 µM [inhibitor, single point]
40 | COc1ccc(S(=O)(=O)n2ccc(C(C)Oc3ccc(-c4ccccc4)c(F)c3)n2)cc1 (configuration not stated) | active: 16.5 µM
41 | C[C@@H](NC(=O)CN1C(=O)c2ccccc2S1(=O)=O)c1ccccc1 | inconclusive: 11.7 µM [inhibitor, single point]
42 | Cc1c(C(=O)NN2CCOCC2)oc2ccccc12 | inconclusive: 16.5 µM [inhibitor, single point]
43 | COc1ccccc1N=Nc1c(O)[nH]c(=S)[nH]c1=O | inconclusive: 0.0029 µM [inhibitor, full curve, poor fit]
44 | COC(=O)c1cc(S(=O)(=O)Nc2cc(S(=O)(=O)N(C)C)ccc2C)oc1C | inactive
45 | CCOC(=O)c1cc2sc(C)cc2n1CC(=O)N1CCc2ccccc21 | inconclusive: 9.28 µM [inhibitor, partial curve]
46 | Fc1ccccc1CSc1nncn1NC/C=C/c1ccccc1 | inactive

Pulled by compound from the entries so far, 2 records:
Row | Structure (SMILES) | Potency
45 | CCOC(=O)c1cc2sc(C)cc2n1CC(=O)N1CCc2ccccc21 | inconclusive: 9.28 µM [inhibitor, partial curve]
26 | CCS(=O)(=O)N1CCN(Cc2ccc([N+](=O)[O-])cc2)CC1 | inconclusive: 2.94 µM [inhibitor, full curve, poor fit]

(listing goes on)

Row | Structure (SMILES) | Potency
47 | Cc1ccc(C(=O)COC(=O)c2cccc(NC(=O)c3ccc([N+](=O)[O-])cc3[N+](=O)[O-])c2)cc1 | inactive
48 | CCCCN(C(=O)c1ccc(Cl)cc1)C1CC2CCC(C1)N2C (configuration not stated) | inconclusive: 11.7 µM [inhibitor, single point]
49 | CCN1C(=O)c2cccc3c(S(=O)(=O)NCCCN4CCOCC4)ccc1c23 | inconclusive: 11.7 µM [inhibitor, single point]
50 | CC1(C)CC(CC(=O)Nc2ccc([N+](=O)[O-])cc2)C(=O)O1 (configuration not stated) | inconclusive: 2.33 µM [inhibitor, full curve]
51 | COc1ccc(CN2CCNC(=O)C2CC(=O)N(C)Cc2ccno2)c(F)c1 (configuration not stated) | inconclusive: 4.15 µM [inhibitor, single point]
52 | CN(C)S(=O)(=O)c1cccc(NC(=O)Cn2cnc3ccccc3c2=O)c1 | inconclusive: 8.28 µM [inhibitor, single point]
53 | CC1(C)Cc2c(sc3nnn(CC(=O)Nc4ccccc4)c(=O)c23)CO1 | inconclusive: 7.38 µM [inhibitor, single point]
54 | O=C(NC1CC1)c1ccc(-c2ccccc2)cc1 | inconclusive: 5.86 µM [inhibitor, partial curve, poor fit]
55 | COc1ccccc1C(=O)NC(=O)COc1ccc([N+](=O)[O-])cc1 | inactive
56 | COc1ccc(S(=O)(=O)N(C)CC(=O)Nc2ccc(C)cc2)cc1OC | inconclusive: 0.828 µM [inhibitor, partial curve]
57 | CCOC(=O)CC(=O)CSc1n[nH]c(=O)[nH]c1=O | inactive
58 | O=C(NCc1ccc2c(c1)OCO2)c1ccc(-c2ccc(Cl)cc2)o1 | inactive
59 | CC(=O)Nc1ccc2cc3ccc(NC(C)=O)cc3nc2c1 | inconclusive: 10.4 µM [inhibitor, single point]
60 | C=CCSc1nc2c(cc1C#N)CCC2 | inconclusive: 1.17 µM [inhibitor, single point]
61 | COc1ccc(/C=C/C(=O)O)cc1S(=O)(=O)NCc1cccnc1 | inconclusive: 11.7 µM [inhibitor, single point]
62 | N#CCCN(C(=O)COC(=O)C1CCN(S(=O)(=O)c2cccs2)CC1)c1ccccc1 | inactive
63 | CCCn1c2ccc(C)cc2c2nnc(SCCN3CCCCC3)nc21 | active: 9.28 µM
64 | Cc1ccc(Cn2c(NS(=O)(=O)c3ccccc3)nc3ccccc32)cc1 | inconclusive: 8.28 µM [inhibitor, partial curve]
65 | COc1ccc(CNC(=O)c2sccc2-c2ccccc2)cc1OC | inconclusive: 18.5 µM [inhibitor, single point]
66 | Cc1nc2c(ccc3nc(NC(=O)c4ccc5c(c4)OCCO5)sc32)s1 | inconclusive: 0.147 µM [inhibitor, full curve, poor fit]
67 | Cc1cccc2sc(N(CCN(C)C)C(=O)c3ccc4ccccc4c3)nc12 | inconclusive: 18.5 µM [inhibitor, single point]

Rewritten with tabs: three of the compounds above.
Row	Structure (SMILES)	Potency
49	CCN1C(=O)c2cccc3c(S(=O)(=O)NCCCN4CCOCC4)ccc1c23	inconclusive: 11.7 µM [inhibitor, single point]
50	CC1(C)CC(CC(=O)Nc2ccc([N+](=O)[O-])cc2)C(=O)O1 (configuration not stated)	inconclusive: 2.33 µM [inhibitor, full curve]
51	COc1ccc(CN2CCNC(=O)C2CC(=O)N(C)Cc2ccno2)c(F)c1 (configuration not stated)	inconclusive: 4.15 µM [inhibitor, single point]
